# Measured values as given in the supplement of paper PMC12067093, “Discovery and optimisation of a covalent ligand for TRIM25 and its application to targeted protein ubiquitination” (Chemical Science, 2025).
# Chains of the proteins cited; added tags and fusions are not shown. Lines headed by an entry give the natural chain unless they say otherwise; changes in a name come on top.
# UniProt P16885: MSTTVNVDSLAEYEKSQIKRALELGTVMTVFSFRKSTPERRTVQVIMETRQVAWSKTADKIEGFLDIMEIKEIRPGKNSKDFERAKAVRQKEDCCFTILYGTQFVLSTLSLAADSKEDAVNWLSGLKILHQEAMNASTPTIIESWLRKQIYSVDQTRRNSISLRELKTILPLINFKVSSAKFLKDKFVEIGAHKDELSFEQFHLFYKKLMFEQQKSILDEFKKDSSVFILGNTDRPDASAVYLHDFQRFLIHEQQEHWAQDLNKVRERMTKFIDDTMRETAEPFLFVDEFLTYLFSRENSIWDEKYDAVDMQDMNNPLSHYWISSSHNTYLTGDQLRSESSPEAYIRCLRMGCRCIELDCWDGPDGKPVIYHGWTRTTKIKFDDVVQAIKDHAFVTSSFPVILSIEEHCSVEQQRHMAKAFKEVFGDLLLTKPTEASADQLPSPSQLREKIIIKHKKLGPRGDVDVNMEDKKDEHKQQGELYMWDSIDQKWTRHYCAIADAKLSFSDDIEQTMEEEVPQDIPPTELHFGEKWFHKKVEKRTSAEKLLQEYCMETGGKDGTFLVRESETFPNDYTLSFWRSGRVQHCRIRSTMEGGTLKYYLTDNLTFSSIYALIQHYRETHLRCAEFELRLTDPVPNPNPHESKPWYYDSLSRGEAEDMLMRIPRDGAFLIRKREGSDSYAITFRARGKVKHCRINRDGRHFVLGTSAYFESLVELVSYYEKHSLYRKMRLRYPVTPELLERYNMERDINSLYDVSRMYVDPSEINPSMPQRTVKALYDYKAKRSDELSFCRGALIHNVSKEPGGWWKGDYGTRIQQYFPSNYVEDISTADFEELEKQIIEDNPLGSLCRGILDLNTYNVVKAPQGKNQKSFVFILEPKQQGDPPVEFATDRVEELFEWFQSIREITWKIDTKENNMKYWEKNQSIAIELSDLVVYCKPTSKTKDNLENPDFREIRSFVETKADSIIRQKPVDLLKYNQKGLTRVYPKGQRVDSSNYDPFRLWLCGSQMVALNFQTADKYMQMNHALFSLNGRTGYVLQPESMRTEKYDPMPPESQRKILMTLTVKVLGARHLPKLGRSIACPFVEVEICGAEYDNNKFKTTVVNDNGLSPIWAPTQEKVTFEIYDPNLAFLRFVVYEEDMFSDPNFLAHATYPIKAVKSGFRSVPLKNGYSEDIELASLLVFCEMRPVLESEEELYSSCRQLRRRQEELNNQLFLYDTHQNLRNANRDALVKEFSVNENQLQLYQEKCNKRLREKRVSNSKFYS
# UniProt P19174: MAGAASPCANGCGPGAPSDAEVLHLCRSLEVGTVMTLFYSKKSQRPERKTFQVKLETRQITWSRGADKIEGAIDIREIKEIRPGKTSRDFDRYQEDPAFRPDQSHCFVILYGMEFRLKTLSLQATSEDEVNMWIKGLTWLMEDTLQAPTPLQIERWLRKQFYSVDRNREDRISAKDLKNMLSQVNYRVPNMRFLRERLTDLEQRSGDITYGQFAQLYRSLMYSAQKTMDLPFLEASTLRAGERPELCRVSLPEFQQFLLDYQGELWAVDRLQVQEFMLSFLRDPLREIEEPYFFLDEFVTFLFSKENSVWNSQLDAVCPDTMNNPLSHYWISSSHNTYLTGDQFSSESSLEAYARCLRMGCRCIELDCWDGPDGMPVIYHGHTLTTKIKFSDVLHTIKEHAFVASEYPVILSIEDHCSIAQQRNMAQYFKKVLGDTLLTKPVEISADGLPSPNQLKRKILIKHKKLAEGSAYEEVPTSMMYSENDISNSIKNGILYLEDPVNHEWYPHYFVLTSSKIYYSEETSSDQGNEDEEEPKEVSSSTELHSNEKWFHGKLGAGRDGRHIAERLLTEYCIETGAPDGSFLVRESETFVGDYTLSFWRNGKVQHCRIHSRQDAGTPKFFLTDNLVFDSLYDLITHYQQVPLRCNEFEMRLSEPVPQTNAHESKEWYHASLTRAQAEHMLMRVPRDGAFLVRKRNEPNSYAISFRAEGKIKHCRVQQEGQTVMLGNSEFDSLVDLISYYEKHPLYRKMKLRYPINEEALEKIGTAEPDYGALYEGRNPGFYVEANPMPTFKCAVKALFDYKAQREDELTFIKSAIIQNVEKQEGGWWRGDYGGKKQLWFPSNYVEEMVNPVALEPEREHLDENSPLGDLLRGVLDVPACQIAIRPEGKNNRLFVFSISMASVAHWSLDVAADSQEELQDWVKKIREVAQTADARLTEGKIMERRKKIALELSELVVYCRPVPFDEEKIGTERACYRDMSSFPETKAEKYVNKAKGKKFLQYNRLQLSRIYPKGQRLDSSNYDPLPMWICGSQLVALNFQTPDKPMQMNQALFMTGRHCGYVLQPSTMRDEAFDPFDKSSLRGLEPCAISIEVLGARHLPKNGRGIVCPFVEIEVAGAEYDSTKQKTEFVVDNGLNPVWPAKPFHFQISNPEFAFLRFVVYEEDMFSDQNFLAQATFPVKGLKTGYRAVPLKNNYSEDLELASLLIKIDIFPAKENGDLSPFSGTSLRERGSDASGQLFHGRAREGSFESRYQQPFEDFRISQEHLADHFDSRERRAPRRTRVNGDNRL
# UniProt P29590: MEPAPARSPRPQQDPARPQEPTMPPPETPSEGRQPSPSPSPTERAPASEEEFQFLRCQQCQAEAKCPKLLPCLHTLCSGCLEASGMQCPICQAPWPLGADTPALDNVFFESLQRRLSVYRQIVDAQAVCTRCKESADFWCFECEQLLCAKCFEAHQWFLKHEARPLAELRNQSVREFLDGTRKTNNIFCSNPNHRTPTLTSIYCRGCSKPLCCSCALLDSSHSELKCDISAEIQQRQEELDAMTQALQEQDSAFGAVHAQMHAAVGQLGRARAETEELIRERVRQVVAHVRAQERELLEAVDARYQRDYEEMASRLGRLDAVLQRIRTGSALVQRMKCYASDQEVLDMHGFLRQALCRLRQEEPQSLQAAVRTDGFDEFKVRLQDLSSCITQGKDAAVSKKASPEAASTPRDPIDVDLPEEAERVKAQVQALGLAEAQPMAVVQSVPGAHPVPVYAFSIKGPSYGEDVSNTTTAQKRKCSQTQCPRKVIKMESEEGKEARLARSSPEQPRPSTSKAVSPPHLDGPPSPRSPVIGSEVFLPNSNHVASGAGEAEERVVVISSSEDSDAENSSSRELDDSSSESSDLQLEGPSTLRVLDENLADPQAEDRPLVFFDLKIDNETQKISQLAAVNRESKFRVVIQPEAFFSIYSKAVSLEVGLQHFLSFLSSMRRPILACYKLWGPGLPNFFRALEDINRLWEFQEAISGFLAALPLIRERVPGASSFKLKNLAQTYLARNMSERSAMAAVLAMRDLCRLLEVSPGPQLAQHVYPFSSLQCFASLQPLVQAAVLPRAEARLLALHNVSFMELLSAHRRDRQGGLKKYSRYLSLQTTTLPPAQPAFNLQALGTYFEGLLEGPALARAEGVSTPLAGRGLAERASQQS
# UniProt Q9NRX1: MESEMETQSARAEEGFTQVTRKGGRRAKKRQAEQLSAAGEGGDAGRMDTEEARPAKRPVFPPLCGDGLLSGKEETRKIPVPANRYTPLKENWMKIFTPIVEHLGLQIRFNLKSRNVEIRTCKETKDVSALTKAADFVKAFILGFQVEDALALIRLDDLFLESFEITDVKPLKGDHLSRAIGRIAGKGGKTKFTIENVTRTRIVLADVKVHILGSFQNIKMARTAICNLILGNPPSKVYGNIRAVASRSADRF
# UniProt Q9H8W4: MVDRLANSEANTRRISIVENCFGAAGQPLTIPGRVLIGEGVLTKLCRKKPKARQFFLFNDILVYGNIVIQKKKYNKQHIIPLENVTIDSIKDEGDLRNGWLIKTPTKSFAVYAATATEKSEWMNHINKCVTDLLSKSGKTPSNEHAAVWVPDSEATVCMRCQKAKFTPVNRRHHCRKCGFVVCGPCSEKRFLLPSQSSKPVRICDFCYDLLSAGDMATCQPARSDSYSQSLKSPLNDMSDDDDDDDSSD
# UniProt Q01970, whole entry, looked up: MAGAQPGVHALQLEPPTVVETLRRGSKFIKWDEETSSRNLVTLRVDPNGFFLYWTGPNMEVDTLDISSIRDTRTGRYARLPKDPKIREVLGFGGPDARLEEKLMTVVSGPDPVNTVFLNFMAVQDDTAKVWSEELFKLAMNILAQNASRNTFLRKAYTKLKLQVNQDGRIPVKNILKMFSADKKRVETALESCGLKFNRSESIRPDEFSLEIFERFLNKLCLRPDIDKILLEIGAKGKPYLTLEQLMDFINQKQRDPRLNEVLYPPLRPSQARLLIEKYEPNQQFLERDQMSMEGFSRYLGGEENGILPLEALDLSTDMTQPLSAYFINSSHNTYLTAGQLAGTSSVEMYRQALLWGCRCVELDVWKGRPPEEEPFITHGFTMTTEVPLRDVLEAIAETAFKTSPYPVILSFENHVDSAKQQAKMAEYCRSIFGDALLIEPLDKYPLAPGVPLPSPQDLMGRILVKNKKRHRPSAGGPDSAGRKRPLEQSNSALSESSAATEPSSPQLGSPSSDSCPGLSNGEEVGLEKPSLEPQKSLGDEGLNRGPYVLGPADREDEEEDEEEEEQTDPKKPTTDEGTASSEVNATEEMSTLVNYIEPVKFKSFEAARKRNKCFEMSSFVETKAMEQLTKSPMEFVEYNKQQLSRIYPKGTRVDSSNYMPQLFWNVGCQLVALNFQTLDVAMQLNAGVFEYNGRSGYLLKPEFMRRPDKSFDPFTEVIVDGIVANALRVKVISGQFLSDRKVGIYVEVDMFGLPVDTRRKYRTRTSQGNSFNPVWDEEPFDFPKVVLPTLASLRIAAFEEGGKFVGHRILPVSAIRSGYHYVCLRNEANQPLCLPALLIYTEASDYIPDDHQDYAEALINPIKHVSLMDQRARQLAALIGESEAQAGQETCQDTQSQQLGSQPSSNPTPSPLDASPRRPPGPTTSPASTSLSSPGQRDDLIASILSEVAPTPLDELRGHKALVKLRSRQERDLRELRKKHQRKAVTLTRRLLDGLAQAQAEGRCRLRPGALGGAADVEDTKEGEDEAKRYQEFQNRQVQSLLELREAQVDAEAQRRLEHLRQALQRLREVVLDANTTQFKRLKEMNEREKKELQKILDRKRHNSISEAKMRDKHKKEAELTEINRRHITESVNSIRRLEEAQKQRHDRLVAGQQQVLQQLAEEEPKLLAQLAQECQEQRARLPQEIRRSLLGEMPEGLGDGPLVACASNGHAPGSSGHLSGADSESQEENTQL
# UniProt O94903: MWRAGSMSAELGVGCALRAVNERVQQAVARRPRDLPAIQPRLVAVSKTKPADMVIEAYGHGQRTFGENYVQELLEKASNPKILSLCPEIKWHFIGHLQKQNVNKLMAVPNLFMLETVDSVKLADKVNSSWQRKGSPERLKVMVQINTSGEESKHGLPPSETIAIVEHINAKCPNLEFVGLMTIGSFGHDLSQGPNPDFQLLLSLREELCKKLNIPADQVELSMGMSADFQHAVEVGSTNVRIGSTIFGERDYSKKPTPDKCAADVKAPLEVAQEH
# UniProt O75439: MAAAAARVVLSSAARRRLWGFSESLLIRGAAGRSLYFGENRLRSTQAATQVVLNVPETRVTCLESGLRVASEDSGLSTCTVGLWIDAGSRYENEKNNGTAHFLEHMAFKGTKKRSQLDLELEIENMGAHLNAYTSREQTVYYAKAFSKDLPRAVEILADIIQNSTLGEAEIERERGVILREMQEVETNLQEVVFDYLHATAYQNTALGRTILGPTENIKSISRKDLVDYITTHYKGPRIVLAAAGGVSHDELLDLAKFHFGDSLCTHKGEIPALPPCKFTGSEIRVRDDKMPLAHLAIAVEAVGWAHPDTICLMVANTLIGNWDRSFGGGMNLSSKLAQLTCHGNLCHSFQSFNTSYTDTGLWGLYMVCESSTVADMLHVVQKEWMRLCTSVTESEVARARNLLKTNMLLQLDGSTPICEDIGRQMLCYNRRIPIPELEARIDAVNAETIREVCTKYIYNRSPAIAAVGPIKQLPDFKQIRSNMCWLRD
# UniProt Q9HB19: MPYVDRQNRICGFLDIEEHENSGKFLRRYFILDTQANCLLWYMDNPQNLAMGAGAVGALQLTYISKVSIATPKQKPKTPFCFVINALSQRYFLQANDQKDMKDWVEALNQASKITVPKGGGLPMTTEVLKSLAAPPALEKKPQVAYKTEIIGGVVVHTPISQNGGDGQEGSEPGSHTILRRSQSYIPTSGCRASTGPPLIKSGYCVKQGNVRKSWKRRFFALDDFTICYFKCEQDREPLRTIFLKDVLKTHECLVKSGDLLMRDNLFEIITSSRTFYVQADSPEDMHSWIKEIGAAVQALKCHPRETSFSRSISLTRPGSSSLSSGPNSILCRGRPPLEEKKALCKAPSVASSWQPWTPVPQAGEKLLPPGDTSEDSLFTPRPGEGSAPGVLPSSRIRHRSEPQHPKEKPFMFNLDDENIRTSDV
# Some of the results follow.
# Compound: CC1Cc2ccccc2N1C(=O)C1CCCN(C1)C(=O)CCl (mixture of isomers) [TRIM25 ligand 11 (diastereomer mixture)]
# Experiment: probe-labelled cysteine peptide fold change vs DMSO (competition) (log2 fold change); higher = less target engagement (more negative = stronger competition)
# Settings: 50 µM; THP-1; incubation time: 4 h
# 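Note: competitive chemoproteomic profiling in live THP-1 cells with an iodoacetamide desthiobiotin (IA-DTB) probe, comparing probe-labelled peptide intensities in compound-treated cells against DMSO-treated controls.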
row,Target,probe-labelled cysteine peptide fold change
1,PLCG2_P16885_937_NQSIAIELSDLVVYCKPTSK (UniProt P16885),-0.0729
2,PLCG1_P19174_12_AGAASPCANGCGPGAPSDAEVLHLCR (UniProt P19174),-0.148
3,PML_P29590_57_CQQCQAEAK (UniProt P29590),-0.0392
4,PKN1_Q16512_469_HEVQLDMEPQGCLVAEVTFR (UniProt Q16512),0.0973
5,PIK3C3_Q8NEB9_336_CVNWDLPQEAK (UniProt Q8NEB9),-0.089
6,PNO1_Q9NRX1_64_RPVFPPLCGDGLLSGK (UniProt Q9NRX1),-0.202
7,PLEC_Q15149_950_LPLLAVCDYK (UniProt Q15149),-0.000541
8,PML_P29590_129_QIVDAQAVCTR (UniProt P29590),-0.0324
9,PIK3CA_P42336_215_INHDCVPEQVIAEAIR (UniProt P42336),0.0805
10,PLD3_Q8IV08_487_SQLEAIFLRDWDSPYSHDLDTSADSVGNACR (UniProt Q8IV08),-0.248
11,PLEKHF2_Q9H8W4_158_TPSNEHAAVWVPDSEATVCMR (UniProt Q9H8W4),-0.105
12,PLCB3_Q01970_360_CVELDVWK (UniProt Q01970),0.159
13,PLPBP_O94903_86_ILSLCPEIK (UniProt O94903),0.0653
14,PMPCB_O75439_265_FHFGDSLCTHK (UniProt O75439),-0.273
15,PLEKHA2_Q9HB19_81_TPFCFVINALSQR (UniProt Q9HB19),0.0643
16,PLEKHF2_Q9H8W4_219_ICDFCYDLLSAGDMATCQPAR (UniProt Q9H8W4),-0.1

# Part of the list above, reformatted:
row | Target | probe-labelled cysteine peptide fold change
1 | PLCG2_P16885_937_NQSIAIELSDLVVYCKPTSK (UniProt P16885) | -0.0729
11 | PLEKHF2_Q9H8W4_158_TPSNEHAAVWVPDSEATVCMR (UniProt Q9H8W4) | -0.105
